Not every detail of the peptide structures is certain; ends, links or a residue may be inferred.
Experiments:
Format in all cases: in vivo, mouse
[1] = system: female BDF1 mice treated with 5-fluorouracil; test: Animal survival in BDF1 mice treated with 5-fluorouracil after 3-day pretreatment; details: BDF-1 mice, 3 days pretreatment prior to single 5-FU dose (400 mg/kg); FIG. 1B
[2] = system: BALB/c mice inoculated with CT-26 murine colon carcinoma cells; test: CT-26 tumour-bearing BALB/c mice, cyclical irinotecan; details: FIG. 1C
[3] = system: female CD1 mice treated with irinotecan; test: Animal survival in CD1 mice treated with irinotecan after 3-day pretreatment; details: 3 days pretreatment (10 μg twice daily) prior to irinotecan 280 mg/kg x2, FIG. 1A

SMILES: CC[C@H](C)[C@H](NC(=O)[C@H](Cc1ccccc1)NC(=O)[C@H](CC(=O)O)NC(=O)[C@H](CCCNC(=N)N)NC(=O)[C@H](C)NC(=O)[C@H](C)NC(=O)[C@H](CC(C)C)NC(=O)[C@H](CC(N)=O)NC(=O)[C@H](CC(=O)O)NC(=O)[C@H](CC(C)C)NC(=O)[C@@H](NC(=O)[C@@H](NC(=O)[C@H](CC(N)=O)NC(=O)[C@H](CCSC)NC(=O)[C@H](CCC(=O)O)NC(=O)[C@H](CC(=O)O)NC(=O)[C@H](CO)NC(=O)[C@H](Cc1ccccc1)NC(=O)[C@H](CO)NC(=O)CNC(=O)[C@H](CC(=O)O)NC(=O)CNC(=O)[C@@H](N)Cc1c[nH]cn1)[C@@H](C)O)[C@@H](C)CC)C(=O)N[C@@H](CC(N)=O)C(=O)N[C@@H](Cc1c[nH]c2ccccc12)C(=O)N[C@@H](CC(C)C)C(=O)N[C@H](C(=O)N[C@@H](CCC(N)=O)C(=O)N[C@H](C(=O)N[C@@H](CCCCN)C(=O)N[C@H](C(=O)N[C@H](C(=O)N[C@@H](CC(=O)O)C(=O)O)[C@@H](C)O)[C@@H](C)CC)[C@@H](C)O)[C@@H](C)CC [h[Gly2]-GLP-2]
- survival [1]: significant enhancement of survival
- survival ([2]; cyclical irinotecan 100 mg/kg, p<0.01 vs all other groups): enhanced survival
- amount of irinotecan tolerated before equivalent rates of mortality ([2]; h[Gly2]-GLP-2 plus irinotecan 100 mg/kg): tolerated three times the amount of irinotecan
- animal survival [3]: significantly enhanced animal survival
